These results are taken from PubChem BioAssay AID1487 (National Center for Advancing Translational Sciences (NCATS), 2009).

By AC50 is commonly meant the concentration at which the activity in the assay is half-maximal.

SMILES strings stand for the structures. Some of the results follow. Further columns of the screen follow, without active or inactive calls. The list favours compounds with an active or inconclusive main result. Words in brackets tell the shape of the fitted curve; partial curves, single points and poor fits give uncertain potencies.

This assay can be described thus: qHTS Assay for Modulators of Lamin A Splicing. The note with it: HeLa LMNA splicing GFP/RFP minigene ratio, 48 h. The method in brief:
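S3 HeLa cells stably expressing lamin A-EGFP splicing minigene plus DsRed2, 600 cells/well, 48 h compound exposure at 37C. Laser-scanning cytometry; analysed as GFP (500-530 nm)/RFP (575-640 nm) total intensity ratio; 0.5% DMSO vehicle.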
On the technique in general: In qHTS, concentration-response curves come from the screen itself.

The mark [1] stands for this setting: measured here: GFP splicing reporter channel.
Setting [2] is: measured here: RFP viability control channel.

For the molecule `COc1cccc(NC(=O)c2cc(-c3cccnc3)nc3c(Cl)cccc23)c1`, the AC50 is, setting by setting: under setting [1], 22.4 µM [falling, single point]; under setting [2], 25.1 µM [falling, single point].

In the case of `C=CCNC(=O)C1CCN(S(=O)(=O)c2ccc(Br)cc2)CC1`, under setting [1], the AC50 was 6.31 µM [rising, full curve, poor fit].

With `CC1(C)CC(=O)c2c(O)c(-c3ccccc3)c(=O)n(-c3ccccc3)c2C1`, the AC50 under setting [1] was 35.5 µM [rising, single point] and the AC50 under setting [2] is 35.5 µM [rising, single point].

`O=C1C(Cl)=C(N2CCN(c3ccccc3[N+](=O)[O-])CC2)C(=O)c2ccccc21`: the AC50 under setting [1] is 35.5 µM [falling, single point].

For the molecule `Cc1cnc(NC(=O)CSc2c(Cl)cccc2Cl)s1`, the AC50 under setting [2] was 22.4 µM [rising, single point].

Turning to `N#Cc1cccc(-c2nccc(NCc3cccnc3)n2)c1`, under setting [1], the AC50 is 7.94 µM [falling, partial curve].

For the molecule `Cc1ccc(/C=C/C2=Cc3c(sc(NC(=O)CSc4n[nH]c(N)n4)c3C#N)C(C)(C)C2)o1`, the AC50 is, setting by setting: under setting [1], 35.5 µM [falling, single point]; under setting [2], 11.2 µM [falling, partial curve].

Regarding `CCNC(=O)CON=C1c2ccccc2-c2ccccc21`, the concentration at half-maximal activity (AC50) reads like this: under setting [1], 15.8 µM [rising, partial curve]; under setting [2], 0.282 µM [rising, partial curve, poor fit].

`CC(C)(C)NS(=O)(=O)c1ccc(CCC(=O)N2CCCC2)cc1`: the concentration at half-maximal activity (AC50) under setting [2] was 0.251 µM [falling, full curve].

For the molecule `CCCC(=O)Nc1sc2c(c1C(=O)OCC)CC(C)(C)OC2`, the AC50 was 11.2 µM [falling, partial curve] under setting [1] and 35.5 µM [falling, single point] under setting [2].

`CCc1ccc(S(=O)(=O)NCCc2csc(-c3ccccc3)n2)s1`: the concentration at half-maximal activity (AC50) under setting [2] was 4.47 µM [rising, partial curve].

With `CC1CCCCN1C(=O)CN1CCC(c2nc3ccc(Cl)cc3[nH]2)CC1` (centres undefined), under setting [1], the AC50 is 1.58 µM [falling, partial curve].

On to `OC1CCN(c2c3c(nc4cc(-c5ccc(F)cc5)nn24)CCC3)CC1`, for which the AC50 under setting [1] was 10 µM [rising, partial curve].

Consider `CC1=C(C)CC(C(=O)NNC(=O)c2ccccc2O)C(C(=O)O)C1` (centres undefined), for which the concentration at half-maximal activity (AC50) under setting [2] was 25.1 µM [rising, single point].

`COc1cc(NC(=O)c2ccccc2-c2ccccc2)cc(OC)c1OC`: the half-maximal activity concentration (AC50) under setting [1] was 35.5 µM [falling, single point].

With `O=C(N/N=C/C(Br)=C/c1ccccc1)c1cc(-c2ccco2)[nH]n1`, the concentration at half-maximal activity (AC50) under setting [1] was 11.2 µM [falling, single point].

For the molecule `CCN(CC)CCNC(=O)c1cc2cc(Br)ccc2s1`, the AC50 is 0.0355 µM [rising, full curve] under setting [1] and 0.0355 µM [rising, full curve, poor fit] under setting [2].

For the molecule `COc1cccc(-n2c(C)nc3c(cnn3-c3ccc(C)cc3)c2=O)c1`, under setting [2], the AC50 was 20 µM [rising, single point].

For `CCOC(=O)c1[nH]c2ccccc2c1NC(=O)c1ccc(Br)o1`, the AC50 runs as follows: under setting [1], 12.6 µM [rising, single point]; under setting [2], 12.6 µM [rising, single point].

With `Cn1c(Oc2ccc(F)cc2F)c(C=O)c2ccccc21`, the AC50 under setting [1] is 0.0316 µM [falling, full curve, poor fit].

For `CC(C)(C)OC(=O)N1CCC(c2c(C(=O)Nc3ccc4c(c3)OCO4)cnn2-c2ccc(F)cc2F)CC1`, under setting [1], the AC50 is 10 µM [falling, partial curve].

Regarding `Cc1ccc(NC(=O)CCc2nc3ccccc3s2)c(O)c1`, under setting [2], the AC50 was 3.16 µM [falling, full curve, poor fit].

As to `CSCC[C@H](NC(=O)OC(C)(C)C)c1nnc(SCC=C(C)C)o1`, the half-maximal activity concentration (AC50) is 0.0178 µM [rising, full curve, poor fit] under setting [1] and 35.5 µM [rising, single point] under setting [2].

`O=C(c1cccc(C(=O)N2CCN(c3ccc(F)cc3)CC2)c1)N1CCN(c2ccc(F)cc2)CC1`: the half-maximal activity concentration (AC50) was 7.08 µM [rising, partial curve] under setting [1] and 7.94 µM [rising, partial curve] under setting [2].

On to `CC(=O)CCS(=O)(=O)c1ccc(Oc2ccc(S(=O)(=O)CCC(C)=O)cc2)cc1`, for which the AC50 under setting [1] is 35.5 µM [falling, single point] and the AC50 under setting [2] is 35.5 µM [falling, single point].

As for `Cc1cc(Cl)ccc1OC(C)C(=O)Nc1ccc([N+](=O)[O-])cn1` (centres undefined), the AC50 under setting [2] was 14.1 µM [rising, partial curve].

For the molecule `CCc1ccc(NC(=O)CSC2=Nc3ccccc3C3=NC(CC(=O)NCc4ccc5c(c4)OCO5)C(=O)N23)cc1` (centres undefined), the AC50 under setting [1] was 0.00355 µM [falling, full curve, poor fit].

`COc1ccc(C/C(C)=N/NC(=S)Nc2ccc(C(C)C)cc2)cc1`: the AC50 under setting [2] was 15.8 µM [rising, single point].

Consider `Brc1ccc2[nH]c3c(N4CCc5ccccc5C4)ncnc3c2c1`, for which the AC50 under setting [2] was 3.98 µM [rising, full curve, poor fit].

For `Cc1nc(/N=C(\N)NC(=O)N2c3ccccc3Sc3ccccc32)nc2ccccc12`, the concentration at half-maximal activity (AC50) under setting [2] was 25.1 µM [rising, single point].

On to `CN(C)c1ccc(NC(=O)Cn2c(SCc3ccc(F)cc3)nc3cccnc32)cc1`, for which the AC50 under setting [1] was 0.0631 µM [falling, full curve, poor fit] and the AC50 under setting [2] is 0.02 µM [falling, full curve, poor fit].

Consider `CC1CCCN(C(=O)C(C)Sc2nc(-c3ccccc3)cc(C(F)(F)F)n2)C1` (centres undefined), for which the half-maximal activity concentration (AC50) under setting [2] is 11.2 µM [rising, single point].

Regarding `Cc1ccc(NC(=O)CSCc2nc3c(nnn3Cc3ccc(F)cc3)c(=O)[nH]2)c(C)c1`, the half-maximal activity concentration (AC50) under setting [2] is 8.91 µM [falling, partial curve, poor fit].

`Cc1ccc(C)n1-c1ccc(NC(=O)c2ccccc2)cc1`: the concentration at half-maximal activity (AC50) under setting [2] was 5.01 µM [falling, partial curve, poor fit].

Take `Cc1oncc1C(=O)NC1CCCCC1`: the concentration at half-maximal activity (AC50) under setting [1] is 0.0562 µM [rising, partial curve, poor fit] and the AC50 under setting [2] is 0.00447 µM [rising, full curve, poor fit].

Consider `Cc1nc(-c2ccc(C)c(N3CCN(C(=O)Nc4ccc(Br)cc4)CC3)c2)no1`, for which the AC50 under setting [1] was 35.5 µM [falling, partial curve].

Turning to `CCn1cc(S(=O)(=O)c2cccc(C)c2)c(=O)c2cc(F)c(N3CCCCC3C)cc21` (centres undefined), the AC50 was 0.0282 µM [falling, full curve, poor fit] under setting [1] and 0.0355 µM [falling, full curve, poor fit] under setting [2].

For the molecule `O=C(NCc1ccc2c(c1)OCO2)c1cc(S(=O)(=O)N2CCCCC2)ccc1F`, under setting [2], the concentration at half-maximal activity (AC50) is 14.1 µM [rising, single point].

As to `COc1ccc(OCc2nn3c(Cn4cnc5ccccc54)nnc3s2)cc1`, the concentration at half-maximal activity (AC50) under setting [1] was 12.6 µM [rising, single point] and the AC50 under setting [2] was 15.8 µM [rising, partial curve].

For the molecule `COc1cccc(CN(Cc2ccco2)C(c2ccc(F)cc2)c2nnnn2C(C)(C)C)c1` (centres undefined), under setting [2], the AC50 is 11.2 µM [rising, partial curve].

`COc1c([N+](=O)[O-])c(=O)n(-c2ccccc2)c2ccccc12`: the AC50 is 14.1 µM [rising, single point] under setting [1] and 17.8 µM [rising, single point] under setting [2].

Regarding `COc1ccc(N(CC(=O)NCc2ccc(C)cc2)S(=O)(=O)c2ccccc2[N+](=O)[O-])c(OC)c1`, the concentration at half-maximal activity (AC50) runs as follows: under setting [1], 35.5 µM [falling, single point]; under setting [2], 22.4 µM [falling, single point].

Take `Cc1cc2ncn(C(=O)N3CCCCCC3)c2cc1C`: the AC50 under setting [2] was 7.94 µM [rising, partial curve, poor fit].

For the molecule `CCn1c(SCC(=O)NCCOC)nc2sc3c(c2c1=O)CCCC3`, the half-maximal activity concentration (AC50) under setting [1] was 31.6 µM [rising, single point].

`O=C(c1ccco1)N(CCC(c1ccccc1)c1ccco1)Cc1ccco1` (centres undefined): under setting [2], the concentration at half-maximal activity (AC50) was 35.5 µM [falling, partial curve, poor fit].

With `O=C(Nc1sc2c(c1C(=O)O)CCC2)c1ccccc1`, the concentration at half-maximal activity (AC50) under setting [2] is 11.2 µM [rising, single point].

Consider `NC(N)=NCc1cccc(I)c1`, for which, under setting [1], the AC50 is 0.00447 µM [falling, partial curve, poor fit].

For the molecule `CCCCCc1ccc(CC(=O)Nn2c(C)nc3ccccc3c2=O)cc1`, the AC50 under setting [2] is 8.91 µM [rising, partial curve].

For the molecule `COc1ccccc1N1CCN(C(=O)C2CCN(S(=O)(=O)c3ccc(C)cc3)CC2)CC1`, under setting [2], the AC50 is 0.178 µM [falling, full curve, poor fit].

For the molecule `Cc1ccc(-n2cccn2)c(CN2CCCC(CNC(=O)c3ccc(F)cc3)C2)c1` (centres undefined), the AC50 under setting [1] is 28.2 µM [falling, single point].

Take `CC(NC(=O)Nc1ccccc1O)(C(F)(F)F)C(F)(F)F`: the AC50 is, setting by setting: under setting [1], 7.08 µM [rising, partial curve]; under setting [2], 11.2 µM [rising, partial curve].

For `CC1CCC(=NNC(=O)Cc2cccn2C)CC1` (centres undefined), under setting [1], the AC50 was 5.01 µM [rising, partial curve, poor fit].

Turning to `O=[N+]([O-])c1ccc(-c2c(O)c3ccccc3c3nc4ccccc4nc23)cc1`, the AC50 reads like this: under setting [1], 11.2 µM [falling, partial curve]; under setting [2], 22.4 µM [falling, partial curve, poor fit].

Take `c1ccc(N2CCN(c3ncnc4[nH]ncc34)CC2)cc1`: under setting [2], the AC50 was 10 µM [rising, single point].

In the case of `COc1cc(OC)c(NC(=O)NCc2ccc3c(c2)CCN3C(C)=O)cc1Cl`, the AC50 is, setting by setting: under setting [1], 3.55 µM [rising, full curve]; under setting [2], 3.16 µM [rising, partial curve].
